Experimental data: the NIST ThermoML archive (doi:10.1016/j.fluid.2008.01.024)
± gives the expanded uncertainty stated by the source.

What was measured:
[1] = relative permittivity at zero frequency (dimensionless); conditions: 303.15 K; 101 kPa; Liquid; capacitive measurement method
[2] = relative permittivity at zero frequency (dimensionless); xn = mol fraction of the nth substance listed; conditions: 303.15 K; 101 kPa; Liquid; capacitive measurement method; x2 = 0

Row | relative permittivity at zero frequency [1] | relative permittivity at zero frequency [2] | SMILES
1 | 37.72 ± 0.23 |  | CC(=O)N(C)C [N,N-dimethylethanamide]
2 |  | 37.72 ± 0.23 | CC(=O)N(C)C [N,N-dimethylethanamide] + OCC(O)CO
